The target in this assay is ITK-Y511F, fluorescent protein chimera. Nature of the assay: co-IP; Jurkat (JTag) cells transfected with GFP-ITK constructs, stimulated or not with 5 ug/mL anti-CD3e OKT3 cross-linked with rabbit anti-mouse IgG for 1 minute at 37°C, lysed; FP-ITK immunoprecipitated with anti-GFP IgG; SLP-76 and ITK immunoblotted; association index by densitometry against the nonstimulated lane. (In general: In western blotting, separated proteins are transferred to a membrane and probed.)

Results are given in words; binding and its absence hold for the method and conditions named. Binding seen in cells or lysates may run through a third protein. Binding calls can cover weak binding; strength is not graded here.

B1: SLP-76 (protein, UniProt Q13094 1-533)
chain: MALRNVPFRSEVLGWDPDSLADYFKKLNYKDCEKAVKKYHIDGARFLNLTENDIQKFPKLRVPILSKLSQEINKNEERRSIFTRKPQVPRFPEETESHEEDNGGWSSFEEDDYESPNDDQDGEDDGDYESPNEEEEAPVEDDADYEPPPSNDEEALQNSILPAKPFPNSNSMYIDRPPSGKTPQQPPVPPQRPMAALPPPPAGRNHSPLPPPQTNHEEPSRSRNHKTAKLPAPSIDRSTKPPLDRSLAPFDREPFTLGKKPPFSDKPSIPAGRSLGEHLPKIQKPPLPPTTERHERSSPLPGKKPPVPKHGWGPDRRENDEDDVHQRPLPQPALLPMSSNTFPSRSTKPSPMNPLPSSHMPGAFSESNSSFPQSASLPPYFSQGPSNRPPIRAEGRNFPLPLPNKPRPPSPAEEENSLNEEWYVSYITRPEAEAALRKINQDGTFLVRDSSKKTTTNPYVLMVLYKDKVYNIQIRYQKESQVYLLGTGLRGKEDFLSVSDIIDYFRKMPLLLIDGKNRGSRYQCTLTHAAGYP
On to B1, for which the binding result is listed as “binds”.

The values above are taken from publication PMC3357558.
